Assay results taken from PubChem BioAssay AID493014 (National Center for Advancing Translational Sciences (NCATS), 2011).
The list shows a part of the results. These are further read-outs of the screen, such as a control signal, another cell line or another target. No call is given for them. The list favours compounds with an active or inconclusive main result. Potencies come from curve fits of mixed quality, noted in brackets.

Test: qHTS Assay to Find Inhibitors of Chronic Active B-Cell Receptor Signaling
Conditions: ABC-DLBCL IkBa-CBG/CBR reporter, luminescence ratio (green luciferase fused to IkBa over red control in TMD8 lymphoma cells), 4 h
How it was run: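 Compounds up to 46 uM were incubated four hours with TMD8 cells whose green CBG68 luciferase is fused to IkappaBalpha; red CBR luminescence normalised the signal, and concentration-effect curves were fitted to fusion, red and ratio data.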

[1] = measured here: CBR red luminescence, cell number
[2] = measured here: IkBa-CBG green luminescence

| SMILES | AC50 [1] | AC50 [2] |
| --- | --- | --- |
| CCCCN1c2cc(C)c(O)cc2C(C(=O)OCC)C1C (stereo not given) | 0.231 µM [rising, full curve, poor fit] |  |
| CCOc1ccc(-n2c(SCC(N)=O)nc3c([nH]c4ccccc43)c2=O)cc1 | 0.58 µM [falling, partial curve, poor fit] |  |
| C/C(=N\NC(=O)C1CCCC1)c1ccc(Cl)c(Cl)c1 | 1.12 µM [rising, full curve, poor fit] |  |
| COc1ccc(/C=N/OCC(=O)N=Nc2c(O)[nH]c3ccc(Br)cc23)cc1 | 4.47 µM [falling, single point] |  |
| COc1ccc(-c2cc(-c3ccc(OC)cc3)c(C#N)c(SC)n2)cc1 | 0.82 µM [falling, full curve, poor fit] |  |
| CCCn1c(C)cc(C(=O)COC(=O)c2cc(S(=O)(=O)NCC(C)C)c(Cl)cc2Cl)c1C | 2.31 µM [falling, full curve, poor fit] |  |
| C=CCOC(=O)C(C#N)c1nc2ccccc2nc1N1CCN(c2ccccc2OC)CC1 (stereo not given) | 6.31 µM [rising, single point] |  |
| C=C(C)COc1ccc(-c2n[nH]c(C)c2-c2ccc(Br)cc2)c(O)c1 | 35.5 µM [falling, single point] |  |
| N#Cc1c(N)oc(-c2ccco2)c1-c1ccco1 | 0.282 µM [falling, full curve, poor fit] |  |
| O=C(OCC(=O)C12CC3CC(CC(C3)C1)C2)c1ccc(O)cc1O | 18.4 µM [rising, single point] |  |
| O=S(=O)(c1c(F)cccc1F)C1CCN(S(=O)(=O)c2ccc3c(c2)OCCO3)CC1 | 0.259 µM [rising, partial curve, poor fit] |  |
| CSc1ncccc1C(=O)NCc1ccc(C)cc1 | 2.06 µM [rising, single point] |  |
| CCn1c(SCC(=O)Nc2nccs2)nnc1-c1ccc(S(=O)(=O)N2CCCCC2)cc1 | 20.6 µM [falling, partial curve, poor fit] |  |
| Cc1ccc(NC(=O)CNC(=O)c2cccc(C)c2)nc1 | 7.31 µM [falling, partial curve, poor fit] | 29.1 µM [rising, partial curve, poor fit] |
| Cc1ccccc1C(=O)N1CCC(C(=O)N2CCN(Cc3ccc4c(c3)OCO4)CC2)CC1 | 14.6 µM [rising, partial curve] | 18.4 µM [falling, partial curve] |
| O=C(COc1ccccc1F)Nc1ccc(-c2nc3ccccc3s2)cc1 | 0.13 µM [rising, full curve] |  |
| Cc1ccc(C)c(N2C(=O)N(Cc3cc(=O)n4ccccc4n3)c3ccccc3S2(=O)=O)c1 | 20 µM [falling, partial curve, poor fit] |  |
| O=C(NCCCO)c1cc2c([nH]c3ccccc32)c(-c2ccc(F)cc2)n1 | 22.4 µM [falling, single point] |  |
| CCC1=NN(C(=O)Cc2ccc([N+](=O)[O-])cc2)C(O)(C(F)(F)F)C1 (stereo not given) | 6.31 µM [falling, single point] |  |
| CCOc1ccccc1Nc1cc2n(c(=O)n1)CCc1cc(OC)c(OC)cc1-2 |  | 0.631 µM [falling, partial curve, poor fit] |
| CCC1CCCCN1CCCNC(=O)c1cc2c(Cl)nc3ccccc3c2s1 (stereo not given) | 20 µM [falling, single point] |  |

In another format: 3 of the compounds above
SMILES | AC50 [1] | AC50 [2]
CCC1=NN(C(=O)Cc2ccc([N+](=O)[O-])cc2)C(O)(C(F)(F)F)C1 (stereo not given) | 6.31 µM [falling, single point] | 
CCOc1ccccc1Nc1cc2n(c(=O)n1)CCc1cc(OC)c(OC)cc1-2 |  | 0.631 µM [falling, partial curve, poor fit]
CCC1CCCCN1CCCNC(=O)c1cc2c(Cl)nc3ccccc3c2s1 (stereo not given) | 20 µM [falling, single point] | 

Further records follow:

| SMILES | AC50 [1] | AC50 [2] |
| --- | --- | --- |
| Cc1nc2ccc(NC(=O)c3cccs3)cc2s1 | 7.94 µM [falling, partial curve, poor fit] |  |
| COc1cc2c(O)c3c(c(-c4ccc5c(c4)OCO5)c2cc1OC)C(=O)OC3 | 6.31 µM [rising, partial curve] |  |
| CSc1nc(SCC(=O)NCc2ccco2)c2c3c(sc2n1)COC(C)(C)C3 | 31.6 µM [rising, partial curve, poor fit] | 35.5 µM [falling, partial curve, poor fit] |
| COc1cccc(C(=O)NC2CCN(CC(=O)Nc3c(C)cc(C)cc3C)CC2)c1 | 35.5 µM [rising, single point] |  |
| O=C1c2ccccc2CN1c1ccccc1 |  | 12.6 µM [rising, partial curve, poor fit] |
| Cc1cc2n(n1)C(c1ccccc1)Nc1ccccc1-2 (stereo not given) | 16.4 µM [rising, partial curve] |  |
| C#CCOCCOCCOCCNc1nc(N2CCN(C(=O)CCCCCCCCCCNC(=O)[C@H]([C@@H](C)CC)n3cc(CCCCCN)nn3)CC2)nc(N2CCN(C(=O)CCCCCCCCCCNC(=O)[C@@H]([C@H](C)CC)n3cc(CCCCCN)nn3)CC2)n1 | 6.51 µM [rising, single point] |  |
| CCOC(=O)N1CCN(CC(O)COC2CC(C)CC(C)(C)C2)CC1 (stereo not given) | 14.1 µM [falling, single point] |  |
| COc1ccc2c(c1OC)c(=O)n1c3ccc(OC(C)C(=O)NCCN4CCOCC4)cc3c3ccnc2c31 (stereo not given) | 3.98 µM [falling, full curve, poor fit] |  |
| O=C(COC(=O)c1nc(Cl)c(Cl)c(Cl)c1Cl)c1ccc[nH]1 |  | 29.1 µM [falling, single point] |
| Cc1ccc(-c2nc(-c3ccncc3)no2)c(Cl)c1 | 2.82 µM [rising, single point] |  |
| CCCCN(CC)CCCNC(=O)c1cc2c(=O)n(C)c3ccccc3c2n1C | 11.6 µM [falling, single point] |  |
| Cc1ccc(-n2ncc3c(=O)n(CC(=O)N4CCN(C(=O)c5ccco5)CC4)cnc32)cc1 | 29.1 µM [rising, single point] |  |
| CCCCCCCCCCOC(=O)Cn1c(COc2ccccc2OC)[n+](C)c2ccccc21 | 35.5 µM [falling, single point] |  |
| O=c1cc(N2CCc3ccccc3C2)[nH]c(=O)n1-c1ccccc1Cl | 18.4 µM [falling, single point] |  |
| CCCCCCC[C@@H](C/C=C/CCC(=O)N(C)C/C(=C/Cl)C/C(=C\C(=O)N1CC(OC)=CC1=O)OC)OC | 0.651 µM [rising, full curve, poor fit] |  |
| Cc1ccc(NC(=O)c2sccc2-n2cccc2)c(Cl)c1 | 14.1 µM [rising, partial curve] |  |
| O=C1OC(Nc2nc3ccccc3s2)c2ccccc21 (stereo not given) | 0.282 µM [rising, full curve, poor fit] |  |
| N#Cc1c(NC(=O)CSc2ncn[nH]2)sc2c1CCCCC2 | 16.4 µM [falling, partial curve, poor fit] |  |
| Cc1ccc(-c2cc(-c3ccccc3)[nH]c(=S)c2C#N)cc1 | 14.6 µM [rising, partial curve, poor fit] |  |
| c1ccc(CCCNc2ncnc3nc[nH]c23)cc1 | 23.1 µM [falling, single point] |  |

Molecules listed so far containing bromine (2):

| SMILES | AC50 [1] | AC50 [2] |
| --- | --- | --- |
| COc1ccc(/C=N/OCC(=O)N=Nc2c(O)[nH]c3ccc(Br)cc23)cc1 | 4.47 µM [falling, single point] |  |
| C=C(C)COc1ccc(-c2n[nH]c(C)c2-c2ccc(Br)cc2)c(O)c1 | 35.5 µM [falling, single point] |  |

Later entries.

| SMILES | AC50 [1] | AC50 [2] |
| --- | --- | --- |
| CC1CC(CCC(=O)NC(=S)Nc2ccc(Cl)cn2)C(=O)O1 (stereo not given) | 35.5 µM [rising, single point] |  |
| O=C(COc1ccc2c(c1)OCO2)Nc1ccccc1F | 7.94 µM [falling, partial curve] |  |
| COc1ccc(-c2c3c(=O)n(C)c(=O)n(C)c3cn2-c2ccccc2O)cc1 | 35.5 µM [falling, single point] |  |
| O=C(NCc1ccco1)c1ccccc1O | 17.8 µM [rising, partial curve, poor fit] |  |
| COc1ccccc1/C=C(/C(=O)OCC(=O)Nc1ccc(N(C)C)cc1)c1ccccc1 | 29.1 µM [falling, single point] |  |
| O=C(Nc1nc2c(cc3c4c(cccc42)CC3)s1)c1ccccc1Cl | 0.116 µM [falling, full curve] |  |
| Oc1ccc(Nc2nc(-c3ccc4ccccc4c3)cs2)cc1 | 0.291 µM [falling, full curve, poor fit] | 18.4 µM [rising, partial curve, poor fit] |
| COc1ccc(C(=O)N2CCN=C2SCc2cccnc2)c(OC)c1 | 1.64 µM [rising, partial curve, poor fit] |  |
| N#CCC(=O)N/N=C\c1ccc(OC/C=C/c2ccccc2)cc1 | 1.26 µM [falling, full curve, poor fit] |  |
| Cn1cnnc1SCc1ccc(F)c2ccccc12 | 5.8 µM [rising, partial curve] |  |
| CC(=O)N=c1sc2cc(C)ccc2n1C | 0.184 µM [falling, full curve, poor fit] |  |
| CS(=O)(=O)N(CC(=O)N1CCN(c2ccccc2)CC1)Cc1ccc(Cl)cc1 | 3.26 µM [falling, full curve, poor fit] |  |
| Cc1nc2ccccc2n1CCc1nc2c3ccccc3nc(SCC(=O)NCc3ccco3)n2n1 | 6.31 µM [falling, single point] |  |
| O=C(CN1C(=O)NC2(CCCC2)C1=O)OCc1cc(=O)n2cc(Br)ccc2n1 | 0.112 µM [rising, full curve, poor fit] |  |
| CC(C)(C)Cc1nnc(NC(=O)c2ccc([N+](=O)[O-])cc2)s1 | 0.184 µM [rising, full curve, poor fit] |  |
| COc1ccc(NC(=O)O/N=C/c2ccccc2Cl)cc1 | 11.2 µM [rising, single point] |  |
| COc1ccc(C(=O)NC(=S)Nc2ccc(Cl)c(C(=O)O)c2)cc1 | 17.8 µM [falling, partial curve] |  |
| COC(=O)CSc1nnc(-c2ccc(S(=O)(=O)N3CCCCC3)cc2)o1 | 32.6 µM [rising, single point] |  |
| COc1ccc(/C=C\c2onc(C)c2S(=O)(=O)N2CCC(C(=O)NCc3ccco3)CC2)cc1 | 4.47 µM [rising, partial curve, poor fit] |  |
